The match of structure and compound is tentative.
What was measured:
[1] = target: CFTR-mediated transepithelial chloride transport in primary human bronchial epithelial cells from a ΔF508 homozygous CF donor (Homo sapiens, UniProt P13569, DEL508-508); test: TECC24 recording of CFTR-mediated transepithelial chloride transport in CF-HBE cells (AUC fold over DMSO); conditions: test agent 10 μM, 48 hours incubation, AUC of forskolin-stimulated IEQ relative to DMSO
[2] = target: human Cystic Fibrosis Transmembrane Conductance Regulator (CFTR) harboring the ΔF508 mutation (Homo sapiens, UniProt P13569, DEL508-508); test: H441 cell ΔF508-CFTR-HRP cell surface assay (Emax and EC50); assay type: cell-based; conditions: for H441 cell Emax (%): NA = Not active; for EC50: read-out: H441 cell EC50

The chains behind the UniProt entries cited, without tags or fusion partners. A line that says so, or that is headed by a name, gives the form on record, which may keep a tag or linker.
UniProt P13569, with tags, fused parts or gaps DEL508-508: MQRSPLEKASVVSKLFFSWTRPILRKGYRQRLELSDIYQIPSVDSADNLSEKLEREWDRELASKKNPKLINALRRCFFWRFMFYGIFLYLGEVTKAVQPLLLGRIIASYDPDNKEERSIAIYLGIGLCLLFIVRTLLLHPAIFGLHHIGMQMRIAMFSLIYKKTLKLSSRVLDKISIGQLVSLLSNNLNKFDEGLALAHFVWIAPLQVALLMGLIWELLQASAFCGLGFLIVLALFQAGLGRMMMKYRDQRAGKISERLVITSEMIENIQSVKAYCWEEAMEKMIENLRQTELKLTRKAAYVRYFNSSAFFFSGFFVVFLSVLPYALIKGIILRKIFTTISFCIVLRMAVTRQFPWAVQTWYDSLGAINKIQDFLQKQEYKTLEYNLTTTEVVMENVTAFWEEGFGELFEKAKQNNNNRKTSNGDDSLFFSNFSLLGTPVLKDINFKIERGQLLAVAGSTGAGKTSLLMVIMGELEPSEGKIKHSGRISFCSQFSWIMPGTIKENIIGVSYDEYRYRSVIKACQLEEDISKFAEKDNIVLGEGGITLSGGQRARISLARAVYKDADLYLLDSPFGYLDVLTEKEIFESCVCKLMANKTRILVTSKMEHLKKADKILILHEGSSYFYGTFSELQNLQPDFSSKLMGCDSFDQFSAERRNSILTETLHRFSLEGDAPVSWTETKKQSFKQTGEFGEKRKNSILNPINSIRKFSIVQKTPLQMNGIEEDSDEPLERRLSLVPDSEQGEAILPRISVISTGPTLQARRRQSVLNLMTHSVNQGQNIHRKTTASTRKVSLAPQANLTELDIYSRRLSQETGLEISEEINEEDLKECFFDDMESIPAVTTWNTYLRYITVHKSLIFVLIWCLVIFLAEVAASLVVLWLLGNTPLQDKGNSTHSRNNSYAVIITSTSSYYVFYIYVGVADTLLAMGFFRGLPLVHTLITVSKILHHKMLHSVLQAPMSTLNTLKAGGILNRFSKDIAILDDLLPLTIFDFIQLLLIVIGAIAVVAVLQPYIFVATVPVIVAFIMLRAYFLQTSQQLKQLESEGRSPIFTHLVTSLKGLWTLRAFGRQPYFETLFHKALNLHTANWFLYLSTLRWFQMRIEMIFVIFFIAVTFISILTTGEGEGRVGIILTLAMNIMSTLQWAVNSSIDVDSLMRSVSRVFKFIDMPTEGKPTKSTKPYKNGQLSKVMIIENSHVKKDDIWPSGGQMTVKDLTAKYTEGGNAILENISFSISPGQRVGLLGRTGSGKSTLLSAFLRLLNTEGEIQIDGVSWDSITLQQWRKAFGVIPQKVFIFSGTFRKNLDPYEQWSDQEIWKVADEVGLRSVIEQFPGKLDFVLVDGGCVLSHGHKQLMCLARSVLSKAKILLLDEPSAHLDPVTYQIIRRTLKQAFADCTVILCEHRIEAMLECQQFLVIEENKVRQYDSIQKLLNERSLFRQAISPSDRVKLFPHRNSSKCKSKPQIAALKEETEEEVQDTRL

SMILES | TECC24 AUC fold over DMSO @10 μM [1] | H441 cell Emax (%) [2] | EC50 [2]
CC1(C(NC(=O)c2ccc3ccccc3c2OCc2ccc(SC(F)(F)F)cc2)C(=O)O)CC1 (centres unmarked) | C (“C” refers to AUC @10 uM <4) | 90.4% | 1.3 µM
CC(C)(C)[C@H](NC(=O)c1ccc2ccccc2c1OCc1nc(C(F)(F)F)cs1)C(=O)O | – | 60.6% | 8.5 µM
C[C@H](OCc1ccccc1)[C@H](NC(=O)c1ccc2cc(F)ccc2c1OCc1ccc(C(F)(F)F)cc1)C(=O)O | C (“C” refers to AUC @10 uM <4) | 214.1% | 1.5 µM

Reference: patent publication US12630498B2 (Genzyme Corporation, priority 2019, dated 2026)
